# This is one part of the list.
# Protein sequences, listed by entry. Tags and fused reporters are not part of them. Lines headed by an entry give the natural chain unless they say otherwise; changes in a name come on top.
# UniProt P63165, whole entry: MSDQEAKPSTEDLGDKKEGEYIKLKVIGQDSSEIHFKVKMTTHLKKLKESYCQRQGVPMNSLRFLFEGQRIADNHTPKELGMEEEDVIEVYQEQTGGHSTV
# UniProt P35610: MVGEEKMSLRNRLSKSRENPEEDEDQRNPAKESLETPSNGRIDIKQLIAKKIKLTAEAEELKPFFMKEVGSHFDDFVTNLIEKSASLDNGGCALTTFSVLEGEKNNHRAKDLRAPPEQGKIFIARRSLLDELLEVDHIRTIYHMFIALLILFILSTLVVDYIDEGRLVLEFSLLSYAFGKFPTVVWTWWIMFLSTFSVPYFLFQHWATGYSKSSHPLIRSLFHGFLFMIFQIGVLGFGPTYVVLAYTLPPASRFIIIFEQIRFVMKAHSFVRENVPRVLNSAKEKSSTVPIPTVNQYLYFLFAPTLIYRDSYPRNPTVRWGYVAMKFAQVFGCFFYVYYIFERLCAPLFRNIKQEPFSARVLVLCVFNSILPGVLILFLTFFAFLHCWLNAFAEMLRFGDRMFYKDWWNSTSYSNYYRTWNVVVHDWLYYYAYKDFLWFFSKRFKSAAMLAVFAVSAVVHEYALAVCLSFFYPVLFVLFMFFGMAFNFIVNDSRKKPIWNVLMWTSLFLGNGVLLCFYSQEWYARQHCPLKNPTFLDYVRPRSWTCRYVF
# UniProt Q96H20: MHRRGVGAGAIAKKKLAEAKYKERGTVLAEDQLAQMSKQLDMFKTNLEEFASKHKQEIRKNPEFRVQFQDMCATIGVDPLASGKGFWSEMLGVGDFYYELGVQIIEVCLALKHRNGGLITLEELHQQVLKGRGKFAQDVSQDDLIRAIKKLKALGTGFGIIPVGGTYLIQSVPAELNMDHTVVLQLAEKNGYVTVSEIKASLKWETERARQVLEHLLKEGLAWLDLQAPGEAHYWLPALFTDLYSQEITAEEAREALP
# UniProt P08240: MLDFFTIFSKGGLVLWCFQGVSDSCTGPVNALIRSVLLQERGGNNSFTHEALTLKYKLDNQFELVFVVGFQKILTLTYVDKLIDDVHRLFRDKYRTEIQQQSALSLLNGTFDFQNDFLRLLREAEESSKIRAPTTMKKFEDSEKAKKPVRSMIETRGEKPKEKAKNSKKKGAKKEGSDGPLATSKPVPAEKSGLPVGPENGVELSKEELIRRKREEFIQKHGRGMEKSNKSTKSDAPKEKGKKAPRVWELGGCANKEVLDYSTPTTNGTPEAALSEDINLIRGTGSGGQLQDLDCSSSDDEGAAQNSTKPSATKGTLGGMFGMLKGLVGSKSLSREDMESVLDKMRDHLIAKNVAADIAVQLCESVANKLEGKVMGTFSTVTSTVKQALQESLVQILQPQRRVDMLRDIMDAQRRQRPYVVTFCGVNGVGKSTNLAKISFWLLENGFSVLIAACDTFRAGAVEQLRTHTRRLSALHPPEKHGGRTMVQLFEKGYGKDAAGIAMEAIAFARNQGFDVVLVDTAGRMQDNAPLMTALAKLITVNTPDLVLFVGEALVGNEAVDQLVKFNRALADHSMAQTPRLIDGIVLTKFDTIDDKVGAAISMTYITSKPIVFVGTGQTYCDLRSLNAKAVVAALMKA
# UniProt Q9BYT3: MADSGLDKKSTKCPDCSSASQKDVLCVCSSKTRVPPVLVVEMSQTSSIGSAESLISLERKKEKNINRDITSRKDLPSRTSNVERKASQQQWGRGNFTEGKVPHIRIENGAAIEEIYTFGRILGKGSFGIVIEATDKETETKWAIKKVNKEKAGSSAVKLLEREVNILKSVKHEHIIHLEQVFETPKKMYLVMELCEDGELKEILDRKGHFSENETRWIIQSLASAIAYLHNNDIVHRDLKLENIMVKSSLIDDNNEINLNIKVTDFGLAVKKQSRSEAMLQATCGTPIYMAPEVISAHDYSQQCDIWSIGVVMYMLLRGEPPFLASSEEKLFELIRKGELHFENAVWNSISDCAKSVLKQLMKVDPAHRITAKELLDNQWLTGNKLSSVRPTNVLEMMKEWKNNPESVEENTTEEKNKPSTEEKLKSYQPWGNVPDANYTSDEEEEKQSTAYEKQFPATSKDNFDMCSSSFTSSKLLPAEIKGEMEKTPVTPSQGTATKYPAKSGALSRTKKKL
# UniProt Q9H4L7: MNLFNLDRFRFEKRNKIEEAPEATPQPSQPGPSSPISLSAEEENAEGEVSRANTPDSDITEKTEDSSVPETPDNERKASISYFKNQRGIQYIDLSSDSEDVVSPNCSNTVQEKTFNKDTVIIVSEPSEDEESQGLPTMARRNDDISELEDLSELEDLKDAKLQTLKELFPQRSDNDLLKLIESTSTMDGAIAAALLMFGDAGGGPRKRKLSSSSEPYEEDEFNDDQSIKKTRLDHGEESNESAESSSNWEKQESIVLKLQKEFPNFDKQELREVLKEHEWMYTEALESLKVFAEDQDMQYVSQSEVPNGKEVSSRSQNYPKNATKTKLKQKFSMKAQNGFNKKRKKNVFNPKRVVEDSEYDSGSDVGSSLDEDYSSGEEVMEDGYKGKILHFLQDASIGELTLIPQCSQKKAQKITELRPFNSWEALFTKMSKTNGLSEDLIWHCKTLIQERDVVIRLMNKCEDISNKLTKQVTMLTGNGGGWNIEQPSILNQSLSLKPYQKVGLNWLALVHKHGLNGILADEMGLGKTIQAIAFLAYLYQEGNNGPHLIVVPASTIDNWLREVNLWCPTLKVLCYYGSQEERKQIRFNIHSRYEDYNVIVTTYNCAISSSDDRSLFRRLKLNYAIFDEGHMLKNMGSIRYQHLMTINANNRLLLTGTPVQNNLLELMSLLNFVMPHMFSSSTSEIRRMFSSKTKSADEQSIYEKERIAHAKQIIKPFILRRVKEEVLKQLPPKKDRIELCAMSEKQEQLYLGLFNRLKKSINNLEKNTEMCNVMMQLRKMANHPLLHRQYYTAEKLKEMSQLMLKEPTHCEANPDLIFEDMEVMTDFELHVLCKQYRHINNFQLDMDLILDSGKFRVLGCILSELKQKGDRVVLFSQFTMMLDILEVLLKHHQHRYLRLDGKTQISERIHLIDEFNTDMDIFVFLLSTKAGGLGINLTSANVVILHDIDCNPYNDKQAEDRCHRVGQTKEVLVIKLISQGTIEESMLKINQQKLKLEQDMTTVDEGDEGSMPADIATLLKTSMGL
# UniProt O43597: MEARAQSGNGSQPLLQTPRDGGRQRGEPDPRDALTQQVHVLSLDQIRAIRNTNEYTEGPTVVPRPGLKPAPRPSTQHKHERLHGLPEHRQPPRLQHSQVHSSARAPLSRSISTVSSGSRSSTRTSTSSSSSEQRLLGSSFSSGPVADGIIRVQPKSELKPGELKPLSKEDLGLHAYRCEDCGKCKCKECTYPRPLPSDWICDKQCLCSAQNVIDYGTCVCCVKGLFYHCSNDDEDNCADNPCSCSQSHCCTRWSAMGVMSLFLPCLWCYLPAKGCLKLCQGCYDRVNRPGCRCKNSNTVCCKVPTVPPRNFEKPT
# UniProt P51571: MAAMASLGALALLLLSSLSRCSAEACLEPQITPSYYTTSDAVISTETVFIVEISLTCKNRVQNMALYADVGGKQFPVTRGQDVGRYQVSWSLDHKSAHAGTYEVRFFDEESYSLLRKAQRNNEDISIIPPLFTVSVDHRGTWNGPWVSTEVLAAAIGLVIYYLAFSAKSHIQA
# UniProt Q9Y657, whole entry: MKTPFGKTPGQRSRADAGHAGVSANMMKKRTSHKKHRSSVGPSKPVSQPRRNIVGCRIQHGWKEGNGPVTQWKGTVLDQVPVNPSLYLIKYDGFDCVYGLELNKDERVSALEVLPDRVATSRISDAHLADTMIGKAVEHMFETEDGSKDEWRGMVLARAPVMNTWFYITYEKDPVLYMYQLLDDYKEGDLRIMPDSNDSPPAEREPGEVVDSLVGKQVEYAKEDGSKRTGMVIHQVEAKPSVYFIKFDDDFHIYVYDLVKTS
# UniProt Q08AE8, whole entry: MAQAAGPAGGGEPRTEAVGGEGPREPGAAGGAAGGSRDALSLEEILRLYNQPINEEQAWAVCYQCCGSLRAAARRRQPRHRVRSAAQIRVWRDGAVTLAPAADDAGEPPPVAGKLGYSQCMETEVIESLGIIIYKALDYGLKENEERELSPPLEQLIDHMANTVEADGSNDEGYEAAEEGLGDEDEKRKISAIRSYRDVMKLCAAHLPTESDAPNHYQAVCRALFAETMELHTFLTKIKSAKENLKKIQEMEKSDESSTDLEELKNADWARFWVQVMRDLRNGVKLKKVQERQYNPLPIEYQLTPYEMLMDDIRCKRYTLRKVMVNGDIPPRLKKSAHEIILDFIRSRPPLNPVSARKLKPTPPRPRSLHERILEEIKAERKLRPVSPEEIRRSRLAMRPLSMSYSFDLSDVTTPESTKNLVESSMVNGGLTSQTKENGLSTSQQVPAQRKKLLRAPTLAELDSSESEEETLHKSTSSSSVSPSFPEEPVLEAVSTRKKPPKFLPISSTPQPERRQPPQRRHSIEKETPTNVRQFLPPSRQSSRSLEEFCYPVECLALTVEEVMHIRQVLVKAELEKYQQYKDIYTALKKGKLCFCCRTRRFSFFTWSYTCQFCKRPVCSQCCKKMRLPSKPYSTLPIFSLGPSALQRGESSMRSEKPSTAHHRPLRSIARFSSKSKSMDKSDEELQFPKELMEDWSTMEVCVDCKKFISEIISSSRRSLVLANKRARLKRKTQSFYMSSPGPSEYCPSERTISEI
# UniProt Q9UNH7: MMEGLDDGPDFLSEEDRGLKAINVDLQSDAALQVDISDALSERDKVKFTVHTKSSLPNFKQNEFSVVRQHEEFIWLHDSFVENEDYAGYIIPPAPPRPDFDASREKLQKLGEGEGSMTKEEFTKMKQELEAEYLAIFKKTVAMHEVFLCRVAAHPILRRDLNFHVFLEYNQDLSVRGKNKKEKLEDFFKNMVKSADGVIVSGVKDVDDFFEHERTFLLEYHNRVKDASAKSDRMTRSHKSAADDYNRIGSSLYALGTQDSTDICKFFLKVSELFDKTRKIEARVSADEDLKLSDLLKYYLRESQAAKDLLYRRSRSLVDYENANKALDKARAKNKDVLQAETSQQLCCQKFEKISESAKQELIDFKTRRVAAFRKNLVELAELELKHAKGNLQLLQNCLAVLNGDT
# UniProt O75391: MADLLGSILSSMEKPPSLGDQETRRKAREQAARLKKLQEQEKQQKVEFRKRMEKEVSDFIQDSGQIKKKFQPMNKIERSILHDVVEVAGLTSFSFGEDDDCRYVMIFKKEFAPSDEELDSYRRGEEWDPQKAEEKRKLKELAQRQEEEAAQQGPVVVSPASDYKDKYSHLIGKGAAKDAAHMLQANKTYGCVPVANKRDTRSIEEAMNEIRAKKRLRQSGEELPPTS
# UniProt Q8WU79: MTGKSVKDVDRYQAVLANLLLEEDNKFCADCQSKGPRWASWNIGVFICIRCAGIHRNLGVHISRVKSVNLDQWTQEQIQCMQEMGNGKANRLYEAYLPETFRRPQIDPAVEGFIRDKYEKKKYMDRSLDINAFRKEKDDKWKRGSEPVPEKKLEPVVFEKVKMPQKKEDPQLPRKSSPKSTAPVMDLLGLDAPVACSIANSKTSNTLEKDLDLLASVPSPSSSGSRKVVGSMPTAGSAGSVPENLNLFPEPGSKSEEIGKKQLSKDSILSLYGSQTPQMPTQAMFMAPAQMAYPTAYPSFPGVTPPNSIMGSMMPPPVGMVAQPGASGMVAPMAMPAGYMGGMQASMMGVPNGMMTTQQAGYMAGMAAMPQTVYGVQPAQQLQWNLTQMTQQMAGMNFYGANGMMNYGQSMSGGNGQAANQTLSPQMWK
# UniProt O43815: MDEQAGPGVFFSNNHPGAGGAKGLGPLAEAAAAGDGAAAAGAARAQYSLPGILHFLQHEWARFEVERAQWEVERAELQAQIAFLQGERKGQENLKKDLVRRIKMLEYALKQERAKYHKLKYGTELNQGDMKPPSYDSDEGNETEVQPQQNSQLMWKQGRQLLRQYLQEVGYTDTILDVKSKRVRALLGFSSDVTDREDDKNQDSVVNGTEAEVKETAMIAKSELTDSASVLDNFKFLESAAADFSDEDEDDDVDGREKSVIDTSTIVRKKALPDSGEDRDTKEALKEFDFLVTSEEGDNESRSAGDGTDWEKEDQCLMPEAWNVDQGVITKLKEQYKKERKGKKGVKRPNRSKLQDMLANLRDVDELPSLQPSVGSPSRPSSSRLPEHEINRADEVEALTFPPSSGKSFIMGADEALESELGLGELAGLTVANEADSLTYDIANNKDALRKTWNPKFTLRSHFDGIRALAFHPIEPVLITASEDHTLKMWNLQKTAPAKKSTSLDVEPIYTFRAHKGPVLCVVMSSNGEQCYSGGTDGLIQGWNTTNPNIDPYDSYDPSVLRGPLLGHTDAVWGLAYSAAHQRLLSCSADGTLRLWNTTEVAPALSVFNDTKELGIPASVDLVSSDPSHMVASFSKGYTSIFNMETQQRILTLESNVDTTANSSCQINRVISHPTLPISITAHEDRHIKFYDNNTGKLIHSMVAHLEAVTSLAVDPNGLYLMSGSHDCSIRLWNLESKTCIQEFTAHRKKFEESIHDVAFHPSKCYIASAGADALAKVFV
# Compound: COc1ccc(Cn2ccc3ccc(C(=O)NO)cc32)cc1
# Assay: dose-dependent thermal stabilisation call (2D-TPP, DLPTP, 10% FDR) (binary (1 = stabilised)); higher = stabilised by the compound
# Settings: system: HL-60 intact cells; concentration range 0.04-10 µM
row,Target,dose-dependent thermal stabilisation call
1,SUMO1 (UniProt P63165),inactive: 0
2,SOAT1 (UniProt P35610),inactive: 0
3,SPG20 (UniProt Q8N0X7),inactive: 0
4,SRGAP2 (UniProt O75044),inactive: 0
5,SNF8 (UniProt Q96H20),inactive: 0
6,TAF4 (UniProt O00268),inactive: 0
7,SRPR (UniProt P08240),inactive: 0
8,STUB1 (UniProt Q9UNE7),inactive: 0
9,SRP68 (UniProt Q9UHB9),inactive: 0
10,STK33 (UniProt Q9BYT3),inactive: 0
11,SNX20 (UniProt Q7Z614),inactive: 0
12,SNX2 (UniProt O60749),inactive: 0
13,SMARCAD1 (UniProt Q9H4L7),inactive: 0
14,SMPDL3B (UniProt Q92485),inactive: 0
15,SMPD2 (UniProt O60906),inactive: 0
16,SNTB1 (UniProt Q13884),inactive: 0
17,SPRY2 (UniProt O43597),inactive: 0
18,SSR4 (UniProt P51571),inactive: 0
19,SPAG5 (UniProt Q96R06),inactive: 0

row,Target,dose-dependent thermal stabilisation call
1,SPIN1 (UniProt Q9Y657),inactive: 0
2,SPIRE1 (UniProt Q08AE8),inactive: 0
3,SYNCRIP (UniProt O60506),inactive: 0
4,SLMAP (UniProt Q14BN4),inactive: 0
5,SUDS3 (UniProt Q9H7L9),inactive: 0
6,SNX6 (UniProt Q9UNH7),inactive: 0
7,SYMPK (UniProt Q92797),inactive: 0
8,SPINT1 (UniProt O43278),inactive: 0
9,SPTAN1 (UniProt Q13813),inactive: 0
10,SMC5 (UniProt Q8IY18),inactive: 0
11,ST3GAL2 (UniProt Q16842),inactive: 0
12,SLFN11 (UniProt Q7Z7L1),inactive: 0
13,SPAG7 (UniProt O75391),inactive: 0
14,SMAP2 (UniProt Q8WU79),inactive: 0
15,SMG1 (UniProt Q96Q15),inactive: 0
16,SSX2IP (UniProt Q9Y2D8),inactive: 0
17,STRN (UniProt O43815),inactive: 0
18,STX6 (UniProt O43752),inactive: 0

# Single entries from the list:
# SLFN11 (UniProt Q7Z7L1) – dose-dependent thermal stabilisation call: inactive: 0
# SPIRE1 (UniProt Q08AE8) – dose-dependent thermal stabilisation call: inactive: 0

# — the supplement of paper PMC7666118
